Assay results: PubChem BioAssay AID1487 (National Center for Advancing Translational Sciences (NCATS), 2009)
About 25 (0.01%) of roughly 200,000 compounds were called active. This list was built around the results that the source calls inconclusive (neither active nor inactive); the mix of calls is not that of the screen. Calls come from the whole dose curve; as a rule, active = well fitted inhibition curve with a large enough effect in the signal ratio, with a control signal flat (not every such curve was filed as active); inconclusive = small, poorly fitted or top-dose-only effect, or effect the other way, or a change in a side signal; inactive = flat fitted curve, though single readings scatter; the % refers to the signal ratio. Potencies beside an inconclusive call are fits to weak or partial responses and may not hold up.

assay: qHTS Assay for Modulators of Lamin A Splicing; settings: HeLa LMNA splicing GFP/RFP minigene ratio, 48 h; ratio change, negative = inhibition: at 46.1 µM (top of the series) unless noted
Procedure, shortened: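 S3 HeLa stable clones carrying a lamin A-EGFP splicing minigene plus DsRed2 were seeded at 600 cells/well in Opti-MEM with 2% FBS, pin-dosed and incubated 48 h at 37°C. Acumen cytometry (488 nm) gave the GFP/RFP total-intensity ratio.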
% is set by controls: 0 for no effect and ±100 for the full control effect; potency is the fitted concentration of half-maximal effect.

Structure (SMILES)	ratio change, negative = inhibition	Potency
Cc1ccc(C(=O)CSC2=NC(N)=C(C#N)C3(CCCCC3)C2C(N)=O)cc1 (stereo not drawn)	inconclusive: 9.82%	–
CCOc1cc(C(C#N)N2CCOCC2)ccc1OC (stereo not drawn)	inactive	–
O=C(Nc1cccc(F)c1)c1cccc(S(=O)(=O)N2CCOCC2)c1	inconclusive: -34.2%	–
Cc1ccccc1NC(=O)Nc1ccc2nc(N3CCN(C)CC3)cc(C)c2c1	inconclusive: -20.8% [at 46 µM]	–
CC(C)NC(=O)c1ccc(C2SCC(=O)N2Cc2ccccc2)cc1 (stereo not drawn)	inactive	–
O=C(CCCOc1ccc(Cl)cc1Cl)NCCCO	inactive	–
CCN1/C(=C/C(=O)c2ccco2)Sc2ccccc21	inactive	–
CSc1nsc(/C=C/Nc2ccc(C)c(C)c2)c1C#N	inconclusive: 2.59% [at 46 µM]	–
O=C(COC(=O)CC(c1ccccc1)c1ccccc1)NCc1ccc(Cl)cc1	–	inconclusive: 35.5 µM [fluorescent, single point]
O/N=C/c1ccc(OCc2ccccc2)c(Br)c1	inconclusive: 12.8%	–
O=C(OC(c1ccccc1)c1nccc2ccccc12)c1cc([N+](=O)[O-])cc([N+](=O)[O-])c1 (stereo not drawn)	inactive	–
COc1ccccc1/C=C/C=C1\Oc2c(ccc(O)c2CN2CCN(CCO)CC2)C1=O	inconclusive: 5.83%	–
O=C(O)[C@H](CSCc1ccccc1)NS(=O)(=O)c1ccc(F)cc1	inactive	–
CCOc1ccc(C2=Nn3cnnc3SC2)cc1	inconclusive: 13%	–
O=C(NC(NC(=S)Nc1ccccc1C(=O)O)C(Cl)(Cl)Cl)c1cccc([N+](=O)[O-])c1 (stereo not drawn)	inconclusive: 35.7%	–
Cc1cc(C)cc(NC(=S)N2CCN(c3ncccn3)CC2)c1	inactive	–
Cc1cccc(/C=C/C(=O)c2ccc(N3CCOCC3)cc2)c1	inconclusive: -6.73%	–
S=C(NCc1ccco1)Nc1ccccn1	inconclusive: -6.59% [at 46 µM]	–
CCOC(=O)c1cccc(NC(=O)CCS(=O)(=O)c2cccs2)c1	inactive	–
CC1CCN(S(=O)(=O)c2cc(C(=O)NCCc3ccccc3)n(C)c2)CC1	inconclusive: 6.18% [at 46 µM]	–
CSc1nc(-c2ccccc2)nc(N2CCCC2)c1C(C)=O	inconclusive: 1.87%	–
CCn1c2ccccc2c2nnc(NN)nc21	inconclusive: -5.34%	–
Cc1oc(=O)c(NC(=O)c2ccccc2)cc1C(=O)c1ccccc1	–	inconclusive: 35.5 µM [inhibitor, single point]
Cc1ccc(N2CC(C(=O)Nc3nccs3)CC2=O)cc1Cl (stereo not drawn)	inactive	–
Cc1ccc(C(=O)N2CCN(c3ccc([N+](=O)[O-])c(NCc4cccnc4)c3)CC2)cc1	inactive	–
COc1cc(C(c2sc3nc(C)nn3c2O)N2CCc3ccccc3C2)cc(OC)c1OC (stereo not drawn)	inactive	–
CC(C)C(NC(=O)c1ccc(C(C)(C)C)cc1)C(=O)OCC(=O)NC(=O)Cc1ccccc1 (stereo not drawn)	inconclusive: -1.61%	–

Structure (SMILES)	ratio change, negative = inhibition	Potency
COc1ccc(N(C(=O)c2cccc([N+](=O)[O-])c2)S(=O)(=O)c2ccc3c(c2)n(C)c(=O)n3C)cc1	inconclusive: 41%	–
Nc1nc(Cl)nc2c1ncn2[C@H]1C[C@H](O)[C@@H](CO)O1	–	inconclusive: 0.0501 µM [inhibitor, full curve, poor fit]
COc1ccc(C(=S)Nc2ccc(N(C)C)cc2)cc1	inactive	–
CC(NC(=O)C1CCN(C(=O)N2CCOc3ccc(Cl)cc32)CC1)c1ccccc1 (stereo not drawn)	–	inconclusive: 35.5 µM [falling, single point]
Cc1ccc(-n2nc3ccc(NC(=O)/C=C/c4ccco4)cc3n2)cc1C	–	inconclusive: 25.1 µM [rising, partial curve]
COc1cc(NC(=O)CNS(=O)(=O)c2cccs2)cc(OC)c1OC	inactive	–
Cc1occc1C(=O)N1CCN(S(C)(=O)=O)CC1	inactive	–
CC(=O)c1ccc(NC(=O)CN(C)S(=O)(=O)c2cc3c(cc2Cl)NC(=O)CO3)cc1	inactive	–
CCOc1cc(-c2ccc(OC(=O)c3ccc(C)cc3)c(OC)c2)cc(=O)c2c(C)oc(C)c12	inconclusive: -59.3% [at 46 µM]	–
COc1ccc(NC(=O)Cn2ncc(Cl)c(Cl)c2=O)cc1S(=O)(=O)N1CCOCC1	–	inconclusive: 35.5 µM [falling, single point]
CCOc1cc(C(=O)Nc2ccc(-c3nc4ccccc4s3)cc2Cl)cc(OCC)c1OCC	inconclusive: 10.7% [at 46 µM]	–
Cc1nn(C)c(C)c1N1C(=O)c2cccc3c(Br)ccc(c23)C1=O	–	inconclusive: 11.2 µM [falling, partial curve]
O=C(CN1C2=NCCCN2c2ccccc21)c1ccc([N+](=O)[O-])cc1	inconclusive: -27.3% [at 46 µM]	–
O=C(c1ccco1)N(Cc1cc2ccccc2[nH]c1=O)CC1CCCO1 (stereo not drawn)	inactive	–
CSc1cc(-c2ccc(Cl)cc2)c(C(=O)NN)s1	–	inconclusive: 17.8 µM [inhibitor, single point]
CC(C)(C)OC(=O)N1CCC(c2c(C(=O)NCc3ccco3)cnn2-c2ccccc2Cl)CC1	inactive	–
O=C(O)CC1Sc2nc3ccccc3n2C1=O (stereo not drawn)	inactive	–
O=C(Nc1nc2c(s1)CN(Cc1ccccc1)CC2)c1c(F)cccc1F	inactive	–
Cc1cccc(NC(=O)c2ccc(N3CCOCC3)c([N+](=O)[O-])c2)n1	inconclusive: 9.59% [at 46 µM]	–
COC(=O)c1c(NC(=S)NN2CCN(C)CC2)sc2c1CCC(C)C2 (stereo not drawn)	–	inconclusive: 35.5 µM [cytotoxic, single point]
CCNc1ncc2nc(-c3cn(C)c4ccccc34)c(=O)n(Cc3cccc(OC)c3)c2n1	–	inconclusive: 6.31 µM [inhibitor, full curve]
CCc1nnc(NC(=O)CSc2nnc(C3CCCCC3)n2-c2ccccc2)s1	inconclusive: 9.56%	–
CCOCCCNC(=O)c1ccccc1SCC	inactive	–
Cc1ccc(OCC(=O)Nc2ccc3nc(SCCOc4ccccc4)sc3c2)cc1	inactive	–
O=C(Nc1cccc2ccccc12)OC1C=CS(=O)(=O)C1 (stereo not drawn)	–	inconclusive: 11.2 µM [falling, partial curve]
Cc1ccc(OC(C)C(=O)N/N=C/c2ccccn2)cc1 (stereo not drawn)	inconclusive: -17.1% [at 46 µM]	–

11 of the compounds above, with bars between the fields:
Structure (SMILES) | ratio change, negative = inhibition | Potency
Cc1ccc(C(=O)CSC2=NC(N)=C(C#N)C3(CCCCC3)C2C(N)=O)cc1 (stereo not drawn) | inconclusive: 9.82% | –
CCOc1cc(C(C#N)N2CCOCC2)ccc1OC (stereo not drawn) | inactive | –
O=C(Nc1cccc(F)c1)c1cccc(S(=O)(=O)N2CCOCC2)c1 | inconclusive: -34.2% | –
Cc1ccccc1NC(=O)Nc1ccc2nc(N3CCN(C)CC3)cc(C)c2c1 | inconclusive: -20.8% [at 46 µM] | –
CC(C)NC(=O)c1ccc(C2SCC(=O)N2Cc2ccccc2)cc1 (stereo not drawn) | inactive | –
O=C(CCCOc1ccc(Cl)cc1Cl)NCCCO | inactive | –
CCN1/C(=C/C(=O)c2ccco2)Sc2ccccc21 | inactive | –
CSc1nsc(/C=C/Nc2ccc(C)c(C)c2)c1C#N | inconclusive: 2.59% [at 46 µM] | –
O=C(COC(=O)CC(c1ccccc1)c1ccccc1)NCc1ccc(Cl)cc1 | – | inconclusive: 35.5 µM [fluorescent, single point]
O/N=C/c1ccc(OCc2ccccc2)c(Br)c1 | inconclusive: 12.8% | –
O=C(OC(c1ccccc1)c1nccc2ccccc12)c1cc([N+](=O)[O-])cc([N+](=O)[O-])c1 (stereo not drawn) | inactive | –
